Measured values from patent US5969210.
For some of these results: Results from cells or extracts need not show a direct contact. For some of these results: A negative result means that nothing was seen under these conditions. For some of these results: For at least one entry, the source does not settle the construct or the ends of the probe. For some of these results: Tags and fusion partners may be left off the protein sequences shown.

The chains behind the UniProt entries cited, without tags or fusion partners. Where a name states a change or a piece, a line headed by the entry shows the natural chain unless it says otherwise.
UniProt P22415: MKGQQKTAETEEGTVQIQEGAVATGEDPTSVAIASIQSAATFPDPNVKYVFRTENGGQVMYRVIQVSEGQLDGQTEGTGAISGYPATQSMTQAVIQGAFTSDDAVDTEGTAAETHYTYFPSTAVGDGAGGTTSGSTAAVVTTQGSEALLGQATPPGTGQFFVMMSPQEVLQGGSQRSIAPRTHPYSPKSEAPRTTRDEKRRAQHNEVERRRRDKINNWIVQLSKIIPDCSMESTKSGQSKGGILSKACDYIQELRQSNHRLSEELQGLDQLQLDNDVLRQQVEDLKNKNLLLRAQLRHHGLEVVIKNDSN

Tests used:
[1] = system: BETA-2/E47 (E2A) heterodimer (HIT-T15 nuclear extract); experiment: competition with a labelled probe; conditions: 100-fold excess mutant does not compete; protein in an extract; variant of B element WT
[2] = target: T1, HNF-3alpha (recombinant) (UniProt P23512); experiment: footprint; conditions: hypersensitive site interrupting H element footprint; SEQ:2 is the full enhancer, probe is a sub-range; purified recombinant protein; protein details: gift of K. Zaret; label: 32P
T1 sequence (looked up, limits assumed): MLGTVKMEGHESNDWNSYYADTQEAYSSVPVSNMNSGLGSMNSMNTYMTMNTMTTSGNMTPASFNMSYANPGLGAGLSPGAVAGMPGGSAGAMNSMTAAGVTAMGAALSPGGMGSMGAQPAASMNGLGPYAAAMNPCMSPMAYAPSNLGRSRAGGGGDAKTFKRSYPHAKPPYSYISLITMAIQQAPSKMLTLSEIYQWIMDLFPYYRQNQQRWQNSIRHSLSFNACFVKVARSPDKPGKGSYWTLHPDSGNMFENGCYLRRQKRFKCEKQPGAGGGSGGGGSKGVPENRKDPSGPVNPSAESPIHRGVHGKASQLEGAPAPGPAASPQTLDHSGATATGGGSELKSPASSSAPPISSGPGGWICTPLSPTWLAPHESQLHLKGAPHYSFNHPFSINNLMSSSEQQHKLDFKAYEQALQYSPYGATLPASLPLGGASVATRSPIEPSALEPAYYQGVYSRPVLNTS

[3] = target: USF-1 (recombinant) (UniProt P22415); experiment: footprint; conditions: DNase I protection coincides with HIT extract footprint; SEQ:1 is the full 5' flank, probe is a sub-range; purified recombinant protein; label: 32P
[4] = system: BETA-2/E47 (E2A) heterodimer (HIT-T15 nuclear extract); experiment: EMSA; conditions: slowest complex blocked by BETA-2 or E2A antisera; protein in an extract; label: 32P

Sequence: TCAGTGAAAGACGGAGTCCT (double strand) [B element MT]
- binding result [1]: no binding

Sequence: TCTAGAGAGTTCTCCTGTTCGCTAGATAAGAAAGCCTGTTCTGCCATCCCAGCAGGCATAGGCTGTTTAAGTTACTAGATAACAGAGTTGTTATTGATTCTATTATTATTATTTTTTCTACTCTTCCTGATTCCCTGAAGTCCAAGGGAAGTTTTGTCAACTAGGAATGATTTTTGTTTAAAAAAAAAAAAAAAAGGCTCCTTGTTGTGTCTTAGCTGGTCAGTGACAGATGGAGTCCTGAGTTTCCTAGGAGCCCTTTACTCAGGAGTGGGAGAACAGAAAGTAAATAAGCGCTCTTAGTCATCTGCTTTCTCAGAGCAGCGTTGGGCCCCAGCACTTGGAAAGCGAATGCTGGCTCCTCCTGGACTCCCCCGTCAGCCTGATGTTGTTAACCCGTTTAACATTCCCTTATCACATGCTCATTGTGGGCAGAATTAAGTGGAATTAGCTAACAAATTATATAAAATTCATTTACCTTTCAAGGAAGCTG (double strand) [STF-1 enhancer fragment -6100 to -5870]
- binding result [2]: binds

Sequence: TTAAGCTCTAATGGAGCGGTTTTGTAACGGAGTAAAGGTTCTGATATTTTTGCGCTCCCCGGTTTGGAGAGCTCCGCAGCAGGACAGGAGAGATCAGCCTGCTGAGAGAGAAAATTGAAACAAGTGCAGGTGTTCGCGGGCCTGGGCCTCCTTCTTAAGGCAGGGCCAGGCCAATGGTGGCCCCAGGCTGAACCACGTGGGGTGCCTCAGAGCCTATGGCACGGCGACCGGCTTCTCTGTCTCTCGCCAGCCTGTGGTTCCCCGGGAGAGCAGTGGAGAACTGTCAAAGCGATCTGGGGTGGCGCTGAGAGTCCGTGAGCTGCCAGCGCCTTAAGGCCTGGCTTGTAGCTCCCTACCCCGGGCTGCCGGCCCCGAAGTGCCGGCTGCCACCATGAATAGTGAG (double strand) [STF-1 promoter fragment -182 to -37]
- binding result [3]: binds

Sequence: TCAGTGACAGATGGAGTCCT (double strand) [B element WT]
- binding result [4]: binds
